## Results of single-concentration screens

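Whole-parasite assay of Trypanosoma brucei over 72 hours; the read-out is not stated. Concentration: 30 µM. The record gives no direction; compounds that gave an IC50 in retests scored well above the rest, so higher reads as stronger inhibition. Values scatter widely below zero; nearly all retest evidence comes from the higher of the two concentrations used. Of about 64,000 compounds tested this way, about 940 (1.5%) reached 50% or more in at least one test.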

Values are the deposited “Percent Effect”, in %.
The record does not define 0% and 100%; most values in the screen are far below 50% and negative numbers occur (in some assays of this library far below -100).
Compounds were drawn at random from those tested, without regard to their results.

For O=C1CSC(c2ccncc2)c2c(n(C3CCOCC3)[nH]c2=O)N1 (stereo not given) the result was -12.04%. CN(CC(=O)N(C)C1CCCCC1)Cc1nc2ccccc2c(=O)[nH]1 read 4.728%. Result for COC(C)c1nc(CN2CCCNCC2)cs1 (stereo not given) was -33.77%. CCn1cnnc1C1CCN(C(=O)c2c(C)oc(C)c2C)CC1 gave -18.27%. Result for CC(=O)C1(c2ccccc2)CCN(C(=O)C2CNCCO2)CC1 (stereo not given) was -25.52%. With O=C(NCc1cccnc1)N1CCC2(CC(=O)N(c3ccsc3)C2)C1.O=C(O)C(F)(F)F (stereo not given) the screen gave -73.27%.

Cc1ccc(F)c(C(=O)NC2CCC(N3C(=O)CCC3=O)CC2)c1 (stereo not given) gave -27.45%. For CS(=O)(=O)CCC(=O)N(Cc1c(F)cccc1F)C1CCCC1 the result was 17.19%. O=S(=O)(C1CC1)N1CCOC2(COCCN(c3ncccn3)C2)C1 (stereo not given) gave -2.396%. Cc1ccccc1CNCc1cc(Cl)ccc1O read -11.96%. For CNC(=O)CSC(C)c1ccc(Br)cc1 (stereo not given) the result was -30.18%. O=C(CCNS(=O)(=O)c1cccnc1)N1CCCCC1 gave -28.76%.

Result for [H][C@@]12C[C@H](C(=O)N3CCCC3)[C@@]([H])(CN(C(=O)NC(C)C)C1)O2 was -37.19%. For Cc1cc(C(=O)CN2CCN(c3cnccn3)CC2)c(C)n1C(C)C the result was -0.2814%. Cc1cc(CN2CCCC2Cn2cncn2)no1 (stereo not given) gave -4.796%. For O=C(CCc1ccncc1)Nc1ccc(OCC2CCOCC2)cc1 the result was -154.1%. For CC(O)C1CCN(Cc2nccn2CC(F)(F)F)CC1 (stereo not given) the result was -10.47%. Result for O=C(CCn1ncc2c(Cl)cccc21)NCCCO was -6.724%.

CCCc1nn(Cc2ccc(Br)s2)c(=O)o1 read -41.28%. Result for CCn1ccnc1C1CCN(c2ncnc3ccsc23)CC1 was -10.09%. [H][C@]12CCC[C@@]1(COCc1ccccn1)CN(C(=O)Cc1ccsc1)C2 read -35.71%. For CSc1ccccc1C(=O)N(C)Cc1nncn1C(C)C the result was 16.7%. For Cc1csc(N2CCN(C(=O)CCC(=O)c3ccc(C)s3)CC2)n1 the result was 9.734%. For CCc1nnc2n1CCN(Cc1nc3c(F)cccc3[nH]1)C2 the result was -7.229%.

For O=C(O)C(F)(F)F.[H][C@@]12CN(Cc3ccccc3)CCC[C@]1(C(=O)O)CN(c1ncccn1)C2 the result was -4.243%. CSCCCNC(=O)c1coc(Cn2cnc3ccccc32)n1 read -39.7%. Result for O=C(NC1CCCC1)c1nc2c(o1)CN(C(=O)CCO)C2 was -31.89%. O=C(NC1CCN(c2ccccc2OC(F)F)C1)c1c[nH]nn1 (stereo not given) read -48.47%. With Cn1cncc1CN1CCC2(CC1)COCCN(S(C)(=O)=O)C2.O=C(O)C(F)(F)F the screen gave -5.891%. With CCNc1nnc(SC(C(=O)NCc2cccnc2)C(C)C)s1 (stereo not given) the screen gave -8.519%.

With CCN(Cc1ccccc1)C(=O)c1cc(C2CCCN2C)ccn1 (stereo not given) the screen gave -13.46%. CCCn1cnnc1CNC(=O)CC1C(=O)NCCN1CC=C(C)C (stereo not given) gave -23.37%. CCN1CCN(c2ccc(C(=O)NCc3cc(C)no3)cc2F)CC1 read -71.36%. For Cc1cc(NC(=O)NCc2ccncc2)ccc1OC(C)C the result was 46.54%. For CN(CC(=O)N1CCCC1Cn1cccn1)C1CC1 (stereo not given) the result was 0.4051%. COC1CCN(C(=O)c2csc(-c3ccccc3F)n2)CC1 read -83.68%.

Cn1cc(C[C@H]2[C@@H](O)CCN2C(=O)c2ccc[nH]2)cn1 read -13.92%. For CCn1c(CN(C)C)nnc1C1CCN(Cc2ccc(Cl)cc2)CC1 the result was -13.91%. With CCn1ccnc1CN1CCN(C(C)C(=O)NCc2ccco2)CC1 (stereo not given) the screen gave -66.44%. With CCOc1ccc(Cl)cc1NC(=O)N1CCC(n2cncn2)CC1 the screen gave 10.7%. For COc1cc(CNC(=O)CNc2cc(Cl)ccc2OC)ccn1 the result was -27.18%. For CC(C)N(Cc1ccc(C#N)cc1)C(=O)Nc1ccccn1 the result was -52.05%.

From ChEMBL document CHEMBL3988442, “University of Dundee, Small-Polar-MMV Screening Library” (2021).